Some entries share one result that the patent states for a list of compounds. At least one structure is not confirmed: it was looked up by name or label, or the drawing left a doubt.
Test system: Jurkat cells
Experiment: Jurkat TUNEL assay for apoptosis
Assay type: cell-based, human
Details: 12.5 and 25 μg/ml of ceramide alone, 24 hours
Protocol: Terminal deoxynucleotide transferase (TdT) mediated deoxyuridine triphosphate (dUTP) nick-end labeling (TUNEL) assay. […] At 24 and 48 hours, DNA strand breaks were labeled with TUNEL assay (In Situ Cell Death Detection Kit, Fluorescein; Boehringer Mannheim, Indianapolis, Ind.), and cellular apoptosis was measured by flow cytometry.

For `CCCCCCCCCCCCC/C=C/[C@@H](O)[C@H](CO)NC(=O)CCCCC` [Ceramide, N-hexanoyl-D-sphingosine], the “apoptosis (TUNEL)” value was at most 3%.

Source: US7015251B1 (priority 1999, dated 2006)
